The other results are listed elsewhere or left out. These are further read-outs of the screen, such as a control signal, another cell line or another target. No call is given for them. The list favours compounds with an active or inconclusive main result. Potencies come from curve fits of mixed quality, noted in brackets.
Assay: qHTS Assay for Lipid Storage Modulators in Drosophila S3 Cells;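 on cell number change: cells counted by Cell Tracker Red CMTPX staining in the red channel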
Settings: BODIPY lipid droplet fluorescence, 18-24 h; for cell number change: measured here: cell count max response, cells fed with added oleic acid
Method in brief: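 Drosophila S3 cells got compounds at several concentrations plus oleic acid (400 uM solution). Laser-scanning cytometry with 488 nm excitation read lipid droplets at 500-530 nm and cells at 575-640 nm. Percent activity was relative to 20 uM Triacsin C.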

[1] = measured here: cell number channel AC50, cells fed with added oleic acid
[2] = measured here: lipid fluorescence (Fed channel) AC50, cells fed with added oleic acid

Structure (SMILES)	cell number change [%]	AC50 [1]	AC50 [2]
C=CCN1C(=O)C2(OCCCO2)c2cc(C)ccc21	-4.99	–	–
Cc1nnc(SCC(=O)NCc2ccc(F)cc2)[nH]c1=O	-31.3	1.84 µM [falling, full curve, poor fit]	4.11 µM [falling, single point]
CCOC(=O)C1=C(C)OC(N)=C(C#N)C1c1cc(Cl)c(OCC(N)=O)c(OC)c1 (stereo not given)	–	5.17 µM [rising, single point]	–
COc1cc(NC(=O)c2cccs2)c(OC)cc1NC(=O)c1ccco1	27.6	2.59 µM [rising, full curve, poor fit]	–
COc1ccc(NC(=O)CN(C)S(=O)(=O)c2ccc3c(c2)CCCN3C(C)=O)cc1	–	–	0.103 µM [rising, full curve]
CCNC(=S)NNC(=O)c1cc(-c2ccccc2C)nc2ccccc12	-20.3	–	–
C=CCOC(=O)C1=C(C)NC(SCC(=O)NC(=O)OCC)=C(C#N)C1c1cccnc1 (stereo not given)	64.1	1.84 µM [rising, full curve]	2.06 µM [rising, partial curve]
COc1cc(C(=O)N2CCC(NC(=O)C(Cc3ccc(C)cc3)NC(C)=O)CC2)cc(OC)c1OC (stereo not given)	-99.7	23.1 µM [falling, partial curve, poor fit]	20.6 µM [falling, partial curve]
Cc1ccccc1C(=O)NCC(=O)OC(C)C(=O)NC(C)CCc1ccccc1 (stereo not given)	-0.275	–	0.13 µM [rising, full curve, poor fit]
COc1ccc(C(C)=O)cc1CSCCC#N	-7.01	1.16 µM [falling, full curve]	–
Cc1ccc(CSc2nc3nc(C)cc(C)n3n2)cc1	19.5	–	–
Cc1ccc2[nH]c3c(=O)n(N)c(=O)[nH]c3c2c1	-5.68	–	–
COc1ccc(NS(=O)(=O)c2cccc(C(=O)O)c2)cc1	-81.9	13 µM [falling, partial curve]	20.6 µM [falling, partial curve]
COc1cccc(CNC(=O)C(=O)N2CCC3(CC2)OCCN3S(=O)(=O)c2ccc(C)cc2)c1	–	–	9.2 µM [rising, partial curve, poor fit]
CNC(=O)c1ccc(NC(=O)CN2c3cccc4cccc(c34)S2(=O)=O)cc1	–	4.11 µM [rising, partial curve]	–
C/C(=N\Nc1cc(N2CCOCC2)ncn1)c1ccc(O)cc1	-25.9	–	29.1 µM [falling, single point]
Cc1ccc(CN2CCC(N3CCC(C(=O)NCC4CCCO4)CC3)CC2)o1 (stereo not given)	-54.4	0.00651 µM [falling, full curve, poor fit]	0.82 µM [falling, partial curve, poor fit]
COc1cc(C)c(S(=O)(=O)n2ccc(C)n2)cc1C	94.8	0.411 µM [rising, full curve]	0.291 µM [rising, full curve]
Cc1ccc(S(=O)(=O)NCC(=O)NCC(=O)OCC(=O)NC(=O)NC(C)(C)C)cc1C	-25	–	6.51 µM [rising, partial curve, poor fit]

As a working copy, some entries already given:
Structure (SMILES)	cell number change [%]	AC50 [1]	AC50 [2]
Cc1ccccc1C(=O)NCC(=O)OC(C)C(=O)NC(C)CCc1ccccc1 (stereo not given)	-0.275	–	0.13 µM [rising, full curve, poor fit]
COc1ccc(C(C)=O)cc1CSCCC#N	-7.01	1.16 µM [falling, full curve]	–
Cc1ccc(CSc2nc3nc(C)cc(C)n3n2)cc1	19.5	–	–
Cc1ccc2[nH]c3c(=O)n(N)c(=O)[nH]c3c2c1	-5.68	–	–

Following part.

Structure (SMILES)	cell number change [%]	AC50 [1]	AC50 [2]
Cn1c(SCc2ccccc2)nc2c1c(=O)[nH]c(=O)n2C	91.5	18.4 µM [rising, partial curve]	–
Cc1ccoc1C(=O)Nc1cccc(Oc2ccccc2)c1	14.3	0.291 µM [rising, full curve, poor fit]	0.651 µM [rising, full curve]
C/C(=N\NC(=O)c1cc(C)nc2ccccc12)c1ccco1	11.6	–	35.5 µM [rising, single point]
COc1ccc(-c2cc(=O)oc3cc(OCC(=O)N(C)C)ccc23)cc1	-13.8	–	0.13 µM [rising, full curve, poor fit]
COc1cc(Cn2ccnc2)c(OC)cc1Cn1ccnc1	32.6	18.4 µM [rising, single point]	–
COc1ccc(CC(=O)NCC2CCCN(Cc3ccc(SC)cc3)C2)cc1 (stereo not given)	-5.87	–	6.51 µM [falling, single point]
CC(C)(C)NC(=O)C(c1cccs1)N(C(=O)c1csnn1)c1ccccc1F (stereo not given)	1.85	4.11 µM [falling, single point]	–
COC(=O)c1cc(NC(=O)c2nccnc2C(=O)O)cc(C(=O)OC)c1	18.4	4.11 µM [rising, single point]	–
Cc1ccc2nsnc2c1S(=O)(=O)N1CCN(C(=O)C2CCCO2)CC1 (stereo not given)	12.6	–	0.651 µM [falling, single point]
COc1ccc(OC)c2[nH]c(=O)c(CCNC(=O)C(=O)c3c[nH]c4ccccc34)cc12	31	0.092 µM [rising, full curve, poor fit]	0.461 µM [rising, full curve, poor fit]
O=C(CCNS(=O)(=O)c1ccccc1)NNC(=O)c1csc(N2CCOCC2)n1	25.5	–	29.1 µM [rising, single point]
CCCNC(=O)c1cc(C)no1	-92.2	20.6 µM [falling, partial curve]	29.1 µM [falling, partial curve]
CCOc1ccccc1N(CC(=O)N1CCc2ccccc2C1)S(C)(=O)=O	20.8	–	29.1 µM [rising, single point]
Cc1nn(C)cc1CN1CCC(n2nccc2NC(=O)CCCc2ccccc2)CC1	2.07	–	6.51 µM [falling, single point]
NC(=O)C1CC12c1ccccc1-c1ccccc12 (stereo not given)	-11.7	–	–
NC(=O)NC(Cc1ccccc1)c1ccccc1 (stereo not given)	-42.2	–	0.13 µM [falling, full curve, poor fit]
O=C(Nc1nc2c(s1)CCCC2=O)c1cnccn1	21.2	–	29.1 µM [rising, single point]
Cc1ccc(C(=O)OCc2cc(=O)n3c(C)csc3n2)s1	6.77	–	0.103 µM [rising, full curve, poor fit]
Cc1ccc(NC(=O)CN2C(=O)N/C(=C/c3ccccc3OCc3cccc(C(=O)O)c3)C2=O)cc1	4.76	–	–

Structure (SMILES)	cell number change [%]	AC50 [1]	AC50 [2]
O=C(/C=C/c1ccc2c(c1)OCO2)NCc1ccc(F)cc1	0.103	–	29.1 µM [falling, single point]
CNS(=O)(=O)c1cn(CC(=O)NCc2ccc(OC)cc2)cc1S(=O)(=O)NC	–	0.00411 µM [rising, full curve, poor fit]	0.58 µM [rising, single point]
O=C(O)CCCC(=O)Nc1ccc(Cl)cc1	16.8	–	0.164 µM [rising, full curve, poor fit]
CCC(=O)OCCNc1cc(Sc2nc3ccccc3s2)c2nonc2c1[N+](=O)[O-]	-57.1	9.2 µM [falling, partial curve, poor fit]	20.6 µM [falling, single point]
CC(C)Cc1cc(C(=O)NCc2cccs2)no1	–	–	6.51 µM [rising, single point]
Cc1ccccc1NC(=O)Cc1c(O)c2ccccc2[nH]c1=O	0.631	–	0.082 µM [falling, full curve, poor fit]
CC(Oc1ccccc1)C(=O)Nc1ccc(S(=O)(=O)NCC2CCCO2)cc1 (stereo not given)	–	0.00461 µM [rising, full curve, poor fit]	–
CN(Cc1ccco1)c1ncnc2ccc(-c3cccc(Cl)c3)cc12	11	–	2.06 µM [rising, full curve, poor fit]
COc1ccc(OCC(=O)O/N=C(\N)c2ccc(OC)c(OC)c2)cc1	2.13	–	29.1 µM [rising, single point]
COc1ccc(COc2cc(-c3cccc(OC)c3)nc3ccc(NC(=O)c4ccc(N(C)C)cc4)cc23)cc1	21.8	–	2.59 µM [rising, partial curve]
COc1cc(/C=N/NC(=O)c2ccccc2Cl)ccc1Oc1ccc([N+](=O)[O-])cn1	18.8	0.366 µM [rising, full curve, poor fit]	–
Cc1ccc(CN2CCN(c3ccccc3)CC2)o1	38.5	29.1 µM [rising, single point]	29.1 µM [rising, single point]
CCOc1cc(C(c2c(C)[nH][nH]c2=O)c2c(C)[nH][nH]c2=O)ccc1OC(=O)c1cccc([N+](=O)[O-])c1	-58.2	3.66 µM [falling, full curve]	29.1 µM [falling, single point]
CN1CCN(S(=O)(=O)c2ccc(N(C)Cc3cccc(F)c3)nc2)CC1	2.2	–	29.1 µM [rising, single point]
COc1ccccc1CN(Cc1cccnc1)S(=O)(=O)c1ccc(-n2cnnn2)c(OC)c1	-2.78	–	–
Cc1nc2nc(SCC(=O)Nc3cccc(F)c3)[nH]c2cc1Br	99.6	4.11 µM [falling, single point]	0.731 µM [rising, single point]
c1ccc2sc(-c3ccncc3)nc2c1	2.14	–	1.46 µM [rising, partial curve, poor fit]
CCCCc1ccc(NS(=O)(=O)c2cccs2)cc1	-49.5	29.1 µM [falling, single point]	29.1 µM [falling, single point]
COc1ccccc1-n1c(C)c2c(OC)cccc(=O)c2c1C	2.43	–	18.4 µM [rising, single point]

Source: PubChem BioAssay AID2685 (National Center for Advancing Translational Sciences (NCATS), 2010)
